Reference: PubChem BioAssay AID1224830 (NIAID, 2016)
Purpose: 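Genes whose knock-down alters the TNF-alpha reporter response to LPS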 (primary screen). Cell system: human THP-1 monocytic leukaemia cells, TNF dual-luciferase reporter clone, PMA-differentiated to macrophage-like cells. Reagent: siRNA pool against human genes, 50 nM. Time to read-out: LPS for 4 h, given about 3 days after siRNA transfection. Treatment: bacterial LPS (TLR4 ligand), 10 ng/ml. Measurement: 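Ratio of firefly to renilla light, scaled to the plate median and expressed as a robust z-score per replicate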. Reading the numbers: TNF reporter robust z-score: higher = stronger TNF reporter response to LPS. Call rule: 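a well is active when its z-score exceeds 2.8 or falls below -1.5; control wells carry no call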.
The deposit covers about 18,000 reagents; this is a random part of them. Of all reagents, about 2,900 (16%) were called active. 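Calls are made per well; low scores hint the gene aids the LPS response, high scores that it dampens it.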 Repeated entries: four replicate wells of each siRNA pool.

gene knocked down	TNF reporter robust z-score	outcome
CBX6	3.81	active
CBX6	2.3	inactive
CBX6	1.66	inactive
CBX6	2.6	inactive
MFHAS1	-1.72	active
MFHAS1	-1.35	inactive
MFHAS1	-0.37	inactive
MFHAS1	0.22	inactive
SV2B	1.44	inactive
SV2B	0.66	inactive
SV2B	1.56	inactive
SV2B	0.74	inactive
LINGO1	2.38	inactive
LINGO1	2.35	inactive
LINGO1	2.27	inactive
LINGO1	0.54	inactive
JARID2	-0.24	inactive
JARID2	-0.62	inactive
JARID2	-0.64	inactive
JARID2	-0.41	inactive
ASRGL1	0.49	inactive
ASRGL1	-0.43	inactive
ASRGL1	-0.96	inactive
ASRGL1	0.62	inactive

An excerpt from the list above:
gene knocked down	TNF reporter robust z-score	outcome
CBX6	2.3	inactive
CBX6	1.66	inactive

Additional reagents follow.
gene knocked down	TNF reporter robust z-score	outcome
TANK	1.03	inactive
TANK	0.77	inactive
TANK	0.56	inactive
RP1	2.37	inactive
RP1	2.07	inactive
RP1	-0.03	inactive
RP1	0.42	inactive
SPACA5	0.85	inactive
SPACA5	-0.02	inactive
SPACA5	-0.06	inactive
SPACA5	0.22	inactive
CLIC4	0.35	inactive
CLIC4	0.54	inactive
CLIC4	0.16	inactive
CLIC4	-0.44	inactive
RPS4X	1.87	inactive
RPS4X	0.99	inactive
RPS4X	1.3	inactive
RPS4X	2.16	inactive
KLK1	1.04	inactive
KLK1	0.32	inactive
KLK1	0.02	inactive
KLK1	2.41	inactive
